Measured values published in US5571892A, “Polypeptide and anti-HIV drug prepared therefrom” (priority 1990, dated 1996).
Part of at least one peptide drawing is inferred or uncertain, most often the ends. Where a SMILES comes first, the peptide text is derived from it.

System: human immunodeficiency virus (HIV)
Details: Table 3; for Anti-HIV activity SI: CC50/EC50; for Anti-HIV activity EC50: tested likewise in Example 2, HIV-infected MT-4 cells
Experimental: HIV-infected MT-4 cells (2.5×10^4 cells/well, multiplicity of infection (MOI): 0.001) immediately after the infection are added together with a test substance with various changes of the concentration to a 96-well microtiter plate. After incubation at […] for 5 days in a CO2 incubator, the number of survivor cells is measured by the MTT method [Pauwels et al.; J. Virol. Methods, 20, 309-321 (1988)]. […] On the other hand, in order to know the cytotoxicity of the test substance on the MT-4 cells, virus-non-infected cells are incubated, likewise as above, together with the test compound with various changes of the concentration. […] Further, the rough ratio of CC 50 to EC 50 (CC 50/EC 50) is expressed as an effective ratio (SI).

CC[C@H](C)[C@@H]1NC(=O)CNC(=O)[C@H](CCCNC(=N)N)NC(=O)[C@H](Cc2ccc(O)cc2)NC(=O)[C@@H]2CSSC[C@H](NC1=O)C(=O)N[C@@H](Cc1ccc(O)cc1)C(=O)N[C@@H](CCCNC(=N)N)C(=O)N[C@@H](CCCCN)C(=O)N[C@H](C(=O)N[C@@H](CCCNC(=N)N)C(N)=O)CSSC[C@H](NC(=O)[C@H](Cc1c[nH]c3ccccc13)NC(=O)[C@H](CCCNC(=N)N)NC(=O)[C@@H](N)CCCNC(=N)N)C(=O)N[C@@H](Cc1ccc(O)cc1)C(=O)N[C@@H](CCCNC(=N)N)C(=O)N[C@@H](CCCCN)C(=O)N2 [(3)] (HELM PEPTIDE1{R.R.W.C.Y.R.K.C.Y.R.G.I.C.Y.R.K.C.R.[am]}$PEPTIDE1,PEPTIDE1,4:R3-17:R3|PEPTIDE1,PEPTIDE1,8:R3-13:R3$$$V2.0)
Anti-HIV activity SI: 5500
Anti-HIV activity EC50: 0.009 µg/mL

CC(C)C[C@@H]1NC(=O)CNC(=O)[C@H](CCCCN)NC(=O)[C@H](Cc2c[nH]c3ccccc23)NC(=O)[C@@H]2CSSC[C@H](NC1=O)C(=O)N[C@@H](Cc1ccc(O)cc1)C(=O)N[C@@H](CCCNC(=N)N)C(=O)N[C@@H](CCCCN)C(=O)N[C@H](C(=O)N[C@@H](CCCNC(=N)N)C(N)=O)CSSC[C@H](NC(=O)[C@H](Cc1c[nH]c3ccccc13)NC(=O)[C@@H](N)CCCNC(=N)N)C(=O)N[C@@H](Cc1c[nH]c3ccccc13)C(=O)N[C@@H](CCCNC(=N)N)C(=O)N[C@@H](CCCCN)C(=O)N2 [(16)] (HELM PEPTIDE1{R.W.C.W.R.K.C.W.K.G.L.C.Y.R.K.C.R.[am]}$PEPTIDE1,PEPTIDE1,3:R3-16:R3|PEPTIDE1,PEPTIDE1,7:R3-12:R3$$$V2.0)
Anti-HIV activity SI: 259
Anti-HIV activity EC50: 0.18 µg/mL

N=C(N)NCCC[C@H](NC(=O)[C@@H]1CSSC[C@H](NC(=O)[C@H](Cc2c[nH]c3ccccc23)NC(=O)[C@@H](N)CCCNC(=N)N)C(=O)N[C@@H](Cc2ccccc2)C(=O)N[C@@H](CCCCN)C(=O)N[C@@H](CCCCN)C(=O)N[C@H]2CSSC[C@H](NC(=O)[C@H](CO)NC(=O)CNC(=O)[C@H](CCCCN)NC(=O)[C@H](Cc3ccccc3)NC2=O)C(=O)N[C@@H](Cc2ccccc2)C(=O)N[C@@H](CCCCN)C(=O)N[C@@H](CCCCN)C(=O)N1)C(N)=O [(18)] (HELM PEPTIDE1{R.W.C.F.K.K.C.F.K.G.S.C.F.K.K.C.R.[am]}$PEPTIDE1,PEPTIDE1,3:R3-16:R3|PEPTIDE1,PEPTIDE1,7:R3-12:R3$$$V2.0)
Anti-HIV activity SI: 119
Anti-HIV activity EC50: 0.36 µg/mL
